Measured values as given in paper doi:10.1101/788778.
Results are given in words; binding and its absence hold for the method and conditions named. In cells and extracts the contact can be indirect. Some entries that bind do so weakly or less than the wild type.

By UniProt entry, the sequences of proteins in these tests, tags left out.
UniProt O14744: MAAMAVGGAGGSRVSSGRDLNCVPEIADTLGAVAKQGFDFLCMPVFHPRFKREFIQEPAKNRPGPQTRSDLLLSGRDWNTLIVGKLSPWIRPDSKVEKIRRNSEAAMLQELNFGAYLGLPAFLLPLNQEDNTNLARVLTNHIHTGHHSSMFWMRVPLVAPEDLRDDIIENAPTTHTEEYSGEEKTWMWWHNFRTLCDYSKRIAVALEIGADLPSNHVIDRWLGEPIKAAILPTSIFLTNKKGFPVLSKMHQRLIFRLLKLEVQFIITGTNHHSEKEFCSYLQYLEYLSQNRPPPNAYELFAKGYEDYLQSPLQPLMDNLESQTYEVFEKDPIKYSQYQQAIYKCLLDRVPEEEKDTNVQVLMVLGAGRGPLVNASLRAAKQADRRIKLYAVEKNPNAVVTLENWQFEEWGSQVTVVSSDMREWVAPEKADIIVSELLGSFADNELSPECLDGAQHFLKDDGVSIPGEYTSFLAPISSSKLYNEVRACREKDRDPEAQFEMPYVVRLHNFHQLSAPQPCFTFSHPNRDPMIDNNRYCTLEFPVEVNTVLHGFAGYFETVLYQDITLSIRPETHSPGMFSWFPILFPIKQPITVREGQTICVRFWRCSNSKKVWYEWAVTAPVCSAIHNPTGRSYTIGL
UniProt Q16637: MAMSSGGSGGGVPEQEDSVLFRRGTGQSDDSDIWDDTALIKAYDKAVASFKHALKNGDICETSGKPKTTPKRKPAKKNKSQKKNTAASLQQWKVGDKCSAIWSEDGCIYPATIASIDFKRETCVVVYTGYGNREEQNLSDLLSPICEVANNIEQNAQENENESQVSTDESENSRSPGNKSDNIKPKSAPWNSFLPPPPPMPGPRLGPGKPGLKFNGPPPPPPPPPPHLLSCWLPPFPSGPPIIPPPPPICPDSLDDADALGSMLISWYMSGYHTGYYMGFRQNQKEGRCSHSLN

How the values were obtained:
[1] = biological target: PRMT5 (human (endogenous in HEK293)) (UniProt O14744); test: co-IP
[2] = biological target: SMN (human (endogenous in HEK293)) (UniProt Q16637); test: co-IP

binding [1]: binds | binding [2]: binds
B1: XRN2 (protein, UniProt Q9H0D6 1-950)
chain: MGVPAFFRWLSRKYPSIIVNCVEEKPKECNGVKIPVDASKPNPNDVEFDNLYLDMNGIIHPCTHPEDKPAPKNEDEMMVAIFEYIDRLFSIVRPRRLLYMAIDGVAPRAKMNQQRSRRFRASKEGMEAAVEKQRVREEILAKGGFLPPEEIKERFDSNCITPGTEFMDNLAKCLRYYIADRLNNDPGWKNLTVILSDASAPGEGEHKIMDYIRRQRAQPNHDPNTHHCLCGADADLIMLGLATHEPNFTIIREEFKPNKPKPCGLCNQFGHEVKDCEGLPREKKGKHDELADSLPCAEGEFIFLRLNVLREYLERELTMASLPFTFDVERSIDDWVFMCFFVGNDFLPHLPSLEIRENAIDRLVNIYKNVVHKTGGYLTESGYVNLQRVQMIMLAVGEVEDSIFKKRKDDEDSFRRRQKEKRKRMKRDQPAFTPSGILTPHALGSRNSPGSQVASNPRQAAYEMRMQNNSSPSISPNTSFTSDGSPSPLGGIKRKAEDSDSEPEPEDNVRLWEAGWKQRYYKNKFDVDAADEKFRRKVVQSYVEGLCWVLRYYYQGCASWKWYYPFHYAPFASDFEGIADMPSDFEKGTKPFKPLEQLMGVFPAASGNFLPPSWRKLMSDPDSSIIDFYPEDFAIDLNGKKYAWQGVALLPFVDERRLRAALEEVYPDLTPEETRRNSLGGDVLFVGKHHPLHDFILELYQTGSTEPVEVPPELCHGIQGKFSLDEEAILPDQIVCSPVPMLRDLTQNTVVSINFKDPQFAEDYIFKAVMLPGARKPAAVLKPSDWEKSSNGRQWKPQLGFNRDRRPVHLDQAAFRTLGHVMPRGSGTGIYSNAAPPPVTYQGNLYRPLLRGQAQIPKLMSNMRPQDSWRGPPPLFQQQRFDRGVGAEPLLPWNRMLQTQNAAFQPNQYQMLAGPGGYPPRRDDRGGRQGYPREGRKYPLPPPSGRYNWN
